Several values for one entry are separate records, joined by “and”; a condition that tells them apart may be missing. Identical values can stand only once.
How the values were obtained:
[1] = Concentration of bromelain and acetylcysteine in sputum after aerosol; design: species or system human; conditions: SS
[2] = as above; conditions: AS
[3] = nebulised NAC 10 mg/ml over 25 minutes
[4] = nebulised NAC 20 mg/ml over 25 minutes

CC(=O)N[C@@H](CS)C(=O)O [NAC, N-acetylcysteine]
Concentration of NAC in sputa [1, 3]: 1.85 mg/mL and 1.85 ± 0.310 mg/mL | Concentration of NAC in sputa [1, 4]: 2.37 mg/mL and 2.367 ± 0.133 mg/mL | Concentration of NAC in sputa [2, 3]: 2.75 ± 0.143 mg/mL | Concentration of NAC in sputa [2, 4]: 2.90 ± 0.210 mg/mL

From patent US20250009856A1, “METHODS FOR TREATING RESPIRATORY DISEASES” (MUCPharm Pty Ltd, priority 2021, published 2025)
